Results are given in words; binding and its absence hold for the method and conditions named. In cells and extracts the contact can be indirect. A yes stands for co-enrichment or nearness to the bait. Other partners may have been found. For some of these results: No binding means not detected with the bait.
T1: NUMB_(616-631) biotinylated peptide, double repeat (human) (UniProt P49757)
T1 sequence (peptide, N-terminal biotin; C-terminal amide): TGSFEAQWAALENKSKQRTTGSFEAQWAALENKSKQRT

Protein sequences, listed by entry. Tags and fused reporters are not part of them. Lines headed by an entry give the natural chain unless they say otherwise; changes in a name come on top. Chains listed by the source or under a name are the forms on record and can include a tag or linker.
NFE2L1_(228-243) biotinylated peptide, double repeat (Q14494, form named): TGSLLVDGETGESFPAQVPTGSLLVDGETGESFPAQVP
PAK1_(88-103) biotinylated peptide, double repeat (Q13153, form named): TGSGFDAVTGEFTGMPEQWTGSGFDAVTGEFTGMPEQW
UniProt Q00987: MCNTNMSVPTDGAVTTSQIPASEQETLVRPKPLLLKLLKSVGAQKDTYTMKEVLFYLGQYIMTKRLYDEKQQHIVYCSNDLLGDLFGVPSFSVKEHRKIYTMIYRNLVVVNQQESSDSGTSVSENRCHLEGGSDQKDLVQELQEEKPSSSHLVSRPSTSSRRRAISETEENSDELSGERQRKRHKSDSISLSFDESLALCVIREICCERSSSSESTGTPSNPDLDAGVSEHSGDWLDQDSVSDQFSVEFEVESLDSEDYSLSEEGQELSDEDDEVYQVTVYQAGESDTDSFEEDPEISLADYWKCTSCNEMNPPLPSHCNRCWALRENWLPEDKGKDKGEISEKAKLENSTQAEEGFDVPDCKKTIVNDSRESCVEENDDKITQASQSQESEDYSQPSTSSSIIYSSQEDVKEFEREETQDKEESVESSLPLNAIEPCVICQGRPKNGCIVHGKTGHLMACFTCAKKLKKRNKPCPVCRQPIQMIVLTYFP
UniProt P06748: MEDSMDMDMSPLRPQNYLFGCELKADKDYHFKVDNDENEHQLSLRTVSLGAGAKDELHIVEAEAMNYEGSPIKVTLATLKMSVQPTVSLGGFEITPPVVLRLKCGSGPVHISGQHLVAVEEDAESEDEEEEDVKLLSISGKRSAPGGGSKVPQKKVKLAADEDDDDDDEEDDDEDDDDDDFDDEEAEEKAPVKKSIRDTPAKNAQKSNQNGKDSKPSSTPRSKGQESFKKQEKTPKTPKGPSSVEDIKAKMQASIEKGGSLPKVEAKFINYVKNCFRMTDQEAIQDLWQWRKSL
UniProt P68400: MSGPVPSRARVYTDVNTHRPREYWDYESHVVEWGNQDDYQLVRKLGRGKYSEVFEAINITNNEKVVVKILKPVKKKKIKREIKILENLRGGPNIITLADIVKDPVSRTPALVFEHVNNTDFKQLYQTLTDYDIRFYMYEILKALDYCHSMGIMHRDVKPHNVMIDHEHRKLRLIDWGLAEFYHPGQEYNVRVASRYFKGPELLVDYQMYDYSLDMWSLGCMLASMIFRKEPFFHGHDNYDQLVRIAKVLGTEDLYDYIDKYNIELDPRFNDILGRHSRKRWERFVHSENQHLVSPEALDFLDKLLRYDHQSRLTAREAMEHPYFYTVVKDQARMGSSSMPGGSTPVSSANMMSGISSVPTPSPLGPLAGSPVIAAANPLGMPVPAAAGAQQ
UniProt Q14145: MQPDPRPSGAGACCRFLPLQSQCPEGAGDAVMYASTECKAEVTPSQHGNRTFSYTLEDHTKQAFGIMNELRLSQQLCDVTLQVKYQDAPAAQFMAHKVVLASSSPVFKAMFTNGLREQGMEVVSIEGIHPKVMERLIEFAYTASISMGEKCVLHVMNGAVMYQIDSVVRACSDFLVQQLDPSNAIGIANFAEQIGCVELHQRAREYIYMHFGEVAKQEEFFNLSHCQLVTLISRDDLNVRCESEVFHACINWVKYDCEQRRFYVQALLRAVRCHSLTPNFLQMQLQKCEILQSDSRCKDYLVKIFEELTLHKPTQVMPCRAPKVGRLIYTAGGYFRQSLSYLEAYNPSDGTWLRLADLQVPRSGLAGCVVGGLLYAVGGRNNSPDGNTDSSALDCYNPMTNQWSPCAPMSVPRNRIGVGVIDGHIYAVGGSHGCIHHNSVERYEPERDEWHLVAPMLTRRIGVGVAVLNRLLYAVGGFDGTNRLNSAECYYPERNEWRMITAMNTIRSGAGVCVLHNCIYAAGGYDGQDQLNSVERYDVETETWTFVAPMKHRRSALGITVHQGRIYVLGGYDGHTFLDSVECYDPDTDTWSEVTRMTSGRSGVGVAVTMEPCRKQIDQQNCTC
UniProt P27694: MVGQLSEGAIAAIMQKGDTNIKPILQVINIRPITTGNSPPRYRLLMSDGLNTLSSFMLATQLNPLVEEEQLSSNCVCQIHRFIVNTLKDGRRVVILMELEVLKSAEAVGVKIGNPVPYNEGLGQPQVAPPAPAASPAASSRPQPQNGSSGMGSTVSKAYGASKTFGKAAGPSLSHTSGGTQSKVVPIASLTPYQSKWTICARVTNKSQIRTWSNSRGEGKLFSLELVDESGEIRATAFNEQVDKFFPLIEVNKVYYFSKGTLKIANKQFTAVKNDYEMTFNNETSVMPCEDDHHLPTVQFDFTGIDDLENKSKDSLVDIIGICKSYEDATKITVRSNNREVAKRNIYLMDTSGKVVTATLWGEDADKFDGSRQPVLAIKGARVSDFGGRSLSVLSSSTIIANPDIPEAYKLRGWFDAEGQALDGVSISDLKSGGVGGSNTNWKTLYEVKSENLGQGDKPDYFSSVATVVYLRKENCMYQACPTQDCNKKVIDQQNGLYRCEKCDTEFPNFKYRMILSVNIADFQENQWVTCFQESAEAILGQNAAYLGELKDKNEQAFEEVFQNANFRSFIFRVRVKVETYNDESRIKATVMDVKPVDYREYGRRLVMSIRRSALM
UniProt P15927: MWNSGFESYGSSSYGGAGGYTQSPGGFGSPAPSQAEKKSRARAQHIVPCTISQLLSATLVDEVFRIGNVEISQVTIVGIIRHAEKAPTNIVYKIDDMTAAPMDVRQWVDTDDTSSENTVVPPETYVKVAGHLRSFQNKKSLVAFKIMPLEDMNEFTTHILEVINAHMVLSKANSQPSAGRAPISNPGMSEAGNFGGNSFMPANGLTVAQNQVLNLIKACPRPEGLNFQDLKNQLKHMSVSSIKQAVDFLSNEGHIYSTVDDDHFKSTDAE

T2: NUMB_(616-631) biotinylated peptide, single repeat (human) (UniProt P49757)
T2 sequence (peptide, N-terminal biotin; C-terminal amide): TGSFEAQWAALENKSKQRT

T3: RNF115_(69-84) biotinylated peptide, double repeat (human) (UniProt Q9Y4L5)
T3 sequence (peptide, N-terminal biotin; C-terminal amide): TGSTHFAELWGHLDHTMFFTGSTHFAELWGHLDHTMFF

T4: RNF115_(69-84) biotinylated peptide, single repeat (human) (UniProt Q9Y4L5)
T4 sequence (peptide, N-terminal biotin; C-terminal amide): TGSTHFAELWGHLDHTMFF

T5: PLEC_(4459-4474) biotinylated peptide, double repeat (human) (UniProt Q15149)
T5 sequence (peptide, N-terminal biotin; C-terminal amide): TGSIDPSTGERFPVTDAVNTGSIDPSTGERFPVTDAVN

T6: PLEC_(4459-4474) biotinylated peptide, single repeat (human) (UniProt Q15149)
T6 sequence (peptide, N-terminal biotin; C-terminal amide): TGSIDPSTGERFPVTDAVN


Legend:
Assay in all cases: affinity purification with mass spectrometry
[1] = biological target: T1, NUMB_(616-631) biotinylated peptide, double repeat (human)
[2] = biological target: T2, NUMB_(616-631) biotinylated peptide, single repeat (human)
[3] = biological target: T3, RNF115_(69-84) biotinylated peptide, double repeat (human)
[4] = biological target: T4, RNF115_(69-84) biotinylated peptide, single repeat (human)
[5] = biological target: NFE2L1_(228-243) biotinylated peptide, double repeat (human) (UniProt Q14494)
[6] = biological target: T5, PLEC_(4459-4474) biotinylated peptide, double repeat (human)
[7] = biological target: NFE2L1_(228-243) biotinylated peptide, single repeat (human) (UniProt Q14494)
[8] = biological target: PAK1_(88-103) biotinylated peptide, double repeat (human) (UniProt Q13153)
[9] = biological target: PAK1_(88-103) biotinylated peptide, single repeat (human) (UniProt Q13153)
[10] = biological target: T6, PLEC_(4459-4474) biotinylated peptide, single repeat (human)

Row | Molecule | binding [5] | binding [6] | binding [8] | binding [9] | further results
1 | E3 ubiquitin-protein ligase MDM2 (from UniProt Q00987 1-491) | – | – | – | – | binding [1]: no binding; binding [2]: no binding; binding [3]: no binding; binding [4]: no binding
2 | NPM1 (from UniProt P06748 1-294) | binds | binds | – | – | –
3 | CSNK2A1 (from UniProt P68400 1-391) | binds | binds | – | – | –
4 | KEAP1 (from UniProt Q14145 1-624) | binds | binds | binds | binds | binding [7]: binds; binding [10]: binds
5 | RPA1 (from UniProt P27694 1-616) | – | – | binds | binds | –
6 | RPA2 (from UniProt P15927 1-270) | – | – | binds | binds | –
7 | BANF1 (protein, UniProt O75531 1-89) MTTSQKHRDFVAEPMGEKPVGSLAGIGEVLGKKLEERGFDKAYVVLGQFLVLKKDEDLFREWLKDTCGANAKQSRDCFGCLREWCDAFL | – | – | binds | binds | –
8 | ATN1 (protein, UniProt P54259 1-1190) MKTRQNKDSMSMRSGRKKEAPGPREELRSRGRASPGGVSTSSSDGKAEKSRQTAKKARVEEASTPKVNKQGRSEEISESESEETNAPKKTKTEQELPRPQSPSDLDSLDGRSLNDDGSSDPRDIDQDNRSTSPSIYSPGSVENDSDSSSGLSQGPARPYHPPPLFPPSPQPPDSTPRQPEASFEPHPSVTPTGYHAPMEPPTSRMFQAPPGAPPPHPQLYPGGTGGVLSGPPMGPKGGGAASSVGGPNGGKQHPPPTTPISVSSSGASGAPPTKPPTTPVGGGNLPSAPPPANFPHVTPNLPPPPALRPLNNASASPPGLGAQPLPGHLPSPHAMGQGMGGLPPGPEKGPTLAPSPHSLPPASSSAPAPPMRFPYSSSSSSSAAASSSSSSSSSSASPFPASQALPSYPHSFPPPTSLSVSNQPPKYTQPSLPSQAVWSQGPPPPPPYGRLLANSNAHPGPFPPSTGAQSTAHPPVSTHHHHHQQQQQQQQQQQQQQQQQQQHHGNSGPPPPGAFPHPLEGGSSHHAHPYAMSPSLGSLRPYPPGPAHLPPPHSQVSYSQAGPNGPPVSSSSNSSSSTSQGSYPCSHPSPSQGPQGAPYPFPPVPTVTTSSATLSTVIATVASSPAGYKTASPPGPPPYGKRAPSPGAYKTATPPGYKPGSPPSFRTGTPPGYRGTSPPAGPGTFKPGSPTVGPGPLPPAGPSGLPSLPPPPAAPASGPPLSATQIKQEPAEEYETPESPVPPARSPSPPPKVVDVPSHASQSARFNKHLDRGFNSCARSDLYFVPLEGSKLAKKRADLVEKVRREAEQRAREEKEREREREREKEREREKERELERSVKLAQEGRAPVECPSLGPVPHRPPFEPGSAVATVPPYLGPDTPALRTLSEYARPHVMSPGNRNHPFYVPLGAVDPGLLGYNVPALYSSDPAAREREREARERDLRDRLKPGFEVKPSELEPLHGVPGPGLDPFPRHGGLALQPGPPGLHPFPFHPSLGPLERERLALAAGPALRPDMSYAERLAAERQHAERVAALGNDPLARLQMLNVTPHHHQHSHIHSHLHLHQQDAIHAASASVHPLIDPLASGSHLTRIPYPAGTLPNPLLPHPLHENEVLRHQLFAAPYRDLPASLSAPMSAAHQLQAMHAQSAELQRLALEQQQWLHAHHPLHSVPLPAQEDYYSHLKKESDKPL | – | – | – | – | binding [3]: binds; binding [4]: binds

Source: doi:10.1101/2022.10.19.512833 (bioRxiv, 2022)
